Here are results for four molecules from US20100285005A1 (Eli Lilly, published 2010).

By UniProt entry, the sequences of proteins in these tests, tags left out.
UniProt P61073: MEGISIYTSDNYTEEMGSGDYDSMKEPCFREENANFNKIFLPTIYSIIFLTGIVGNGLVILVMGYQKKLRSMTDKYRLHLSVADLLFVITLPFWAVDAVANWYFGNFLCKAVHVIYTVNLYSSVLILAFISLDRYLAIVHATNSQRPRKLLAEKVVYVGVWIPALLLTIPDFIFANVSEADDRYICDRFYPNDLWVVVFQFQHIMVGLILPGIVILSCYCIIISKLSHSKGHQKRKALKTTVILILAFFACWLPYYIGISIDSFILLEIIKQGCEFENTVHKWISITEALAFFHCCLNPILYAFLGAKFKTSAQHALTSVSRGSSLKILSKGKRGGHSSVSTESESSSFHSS

The target of assay [1] is human CXCR4, endogenous on human cells (CCRF-CEM leukemia cells; U937 histiocytic lymphoma cells) (human) (UniProt P61073). The assay can be described thus: inhibition of 125I-SDF-1α binding to CCRF-CEM cells (SPA).
Assay [2] has the same target. The assay is described as follows: chemotaxis assay with U937 cells expressing endogenous CXCR4.

These are yes or no findings as the source states them, for the method shown. Some binding calls cover weakened binding; strength is not graded here.

B1: Antibody I (antibody, human IgG4 S228P, kappa, F234A L235A, V domains shown)
VH: EVQLVESGGGLVQPGGSLRLSCAASGFTSTDYYFSWVRQAPGKGLEWVGFIRTKSKGYTTEYSGSVKGRFTISRDDSKNSLYLQMNSLKTEDTAVYYCAREPITTDPRDYWGQGTLVTVSS
VL: DIVMTQSPDSLAVSLGERATINCKSSQSLFNSRTRKKYLAWYQQKPGQPPKLLIYWASKRKSGVPDRFSGSGSGTDFTLTISSLQAEDVAVYYCKQSRFLRAFGQGTKLEIKR
Regarding B1, the binding entry in assay [1] and in assay [2] was “binds” in each case.

B2: Antibody IV (antibody, human IgG4 S228P, kappa, F234A L235A, V domains shown)
VH: EVQLVESGGGLVQPGGSLRLSCAASGFTSTDYYFSWVRQAPGKGLEWVGFIRNKRKGYTTEYSGSVKGRFTISRDDSKNSLYLQMNSLKTEDTAVYYCAREPITTDPRDYWGQGTLVTVSS
VL: DIVMTQSPDSLAVSLGERATINCKSSQSLFNSRTRKKYLAWYQQKPGQPPKLLIYWASKRKSGVPDRFSGSGSGTDFTLTISSLQAEDVAVYYCKQSRFLRAFGQGTKLEIKR
For B2, the binding entry in assay [1] and in assay [2] was “binds” in each case.

B3: Antibody V (antibody, human IgG4 S228P, kappa, F234A L235A, V domains shown)
VH: EVQLVESGGGLVQPGGSLRLSCAASGFTSTDYYFSWVRQAPGKGLEWVGFIRHKSKGYTTEYSGSVKGRFTISRDDSKNSLYLQMNSLKTEDTAVYYCAREPITTDPRDYWGQGTLVTVSS
VL: DIVMTQSPDSLAVSLGERATINCKSSQSLFNSRTRKKYLAWYQQKPGQPPKLLIYWASKRKSGVPDRFSGSGSGTDFTLTISSLQAEDVAVYYCKQSRFLRAFGQGTKLEIKR
Turning to B3, the binding entry in assay [1] and in assay [2] was “binds” throughout.

B4: Antibody II (antibody, human IgG4 S228P, kappa, F234A L235A, V domains shown)
VH: EVQLVESGGGLVQPGGSLRLSCAASGFTSTDYYFSWVRQAPGKGLEWVGFIRSKSKGYTTEYSGSVKGRFTISRDDSKNSLYLQMNSLKTEDTAVYYCAREPITTDPRDYWGQGTLVTVSS
VL: DIVMTQSPDSLAVSLGERATINCKSSQSLFNSRTRKKYLAWYQQKPGQPPKLLIYWASKRKSGVPDRFSGSGSGTDFTLTISSLQAEDVAVYYCKQSRFLRAFGQGTKLEIKR
As to B4, the binding result in assay [1] and in assay [2] was “binds” each time.
